# Results from patent EP3843702B1, “IMMEDIATE RELEASE FIXED-DOSE COMBINATION OF MEMANTINE AND DONEPEZIL” (Tecnimede, Sociedade Técnico-Medicinal, SA, priority 2019, dated 2020).
# Test: Bioequivalence of the fixed-dose composition to EBIXA and ARICEPT (plasma Cmax and AUC)
# [1] = plasma donepezil, composition of the present disclosure vs reference ARICEPT
structure (smiles),measurement,setting,value
"COc1cc2c(cc1OC)C(=O)C(CC1CCN(Cc3ccccc3)CC1)C2 (racemic) [Donepezil 10mg, (RS)-2-[(1-benzyl-4-piperidyl)methyl]-5,6-dimethoxy-2,3-dihydroinden-1-one]",bioequivalence to the mono-products,"in the presence of Mannitol, immediate release fixed-dose combination composition",bioequivalent
same,AUC 0→72 Point Estimate [%],[1],101.62%
same,Cmax Point Estimate [%],[1],100.94%
